Experimental findings from the supplement of paper PMC9233669 are described below.

In data set [1] the test system is biotinyl-Leu-oxazolone. In words: self-aminoacylation, catalytic enhancement (BLO) (fold over background); higher = more active; k-Seq, kA / k0A0; sequences stand for … in GGGAAUGGAUCCACAUCUACGAAUUC…UUCACUGCAGACUUGACGAAGCUG
In short, it runs like this: (§1)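 Working in 50 μL HEPES/NaCl/KCl/MgCl2/CaCl2 buffer with 5% acetonitrile at pH 6.9–7.0, mutagenized RNA pools (0.43 μM; 21-nt variable region) were reacted with 2–1250 μM of each biotinyl-aminoacyl-oxazolone for 90 minutes at room temperature. Streptavidin capture followed, with quantification by triplicate qPCR and Illumina sequencing. Catalytic enhancement is reported as median kA over the uncatalyzed rate, the low-activity peak of a bimodal Gaussian fit to the data.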

For data set [2], the system named is biotinyl-Val-oxazolone. Kind of data set: self-aminoacylation, catalytic enhancement (BVO) (fold over background); higher = more active; k-Seq, kA / k0A0; sequences stand for … in GGGAAUGGAUCCACAUCUACGAAUUC…UUCACUGCAGACUUGACGAAGCUG
In short, it runs like this: as §1

For data set [3], the system named is biotinyl-Ile-oxazolone. Kind of data set: self-aminoacylation, catalytic enhancement (BIO) (fold over background); higher = more active; k-Seq, kA / k0A0; sequences stand for … in GGGAAUGGAUCCACAUCUACGAAUUC…UUCACUGCAGACUUGACGAAGCUG
Put shortly: as §1

The subject of data set [4] is biotinyl-Met-oxazolone. In words: self-aminoacylation, catalytic enhancement (BMO) (fold over background); higher = more active; k-Seq, kA / k0A0; sequences stand for … in GGGAAUGGAUCCACAUCUACGAAUUC…UUCACUGCAGACUUGACGAAGCUG
In short, it runs like this: as §1

Variants at the background level are over-represented here.

Regarding “CCUAACUUCAAGCAAUCGGUC [Fam1B.1 aminoacylation ribozyme variant]”, the self-aminoacylation was found to be 1.54 in data set [1], 1.01 in data set [2], 1.18 in data set [3] and 1.02 in data set [4].
With “AUUAACCUAGGUCACCGGGUG [Fam2.2 aminoacylation ribozyme variant]”, the self-aminoacylation turned out to be 4.52 in data set [1], 3.13 in data set [2], 3.19 in data set [3] and 4.09 in data set [4].
As to “GUUACCCUGGUCAUCGAGUAA [Fam2.1 aminoacylation ribozyme variant]”, the self-aminoacylation in data set [1] turned out to be 21.8; in data set [2], 7.98; in data set [3], 6.86; in data set [4] it was 22.6.
The like results for “CUACUUUAAACAGUCGGUCUG [Fam1A.1 aminoacylation ribozyme variant]” were, in that order, 0.812, 0.845, 0.837 and 0.765.
The like results for “AUUCACCUAUGUGAUCGGGUG [Fam2.2 aminoacylation ribozyme variant]” were, in that order, 2.74, 1.99, 1.69 and 2.14.
On the same counts, the results for “AUUACCCUGGUCACCGAGUUA [Fam2.1 aminoacylation ribozyme variant]” are 1.26, 1.75, 1.64 and 1.52.
In the case of “CUACUUCAAGCAAUCGGUCUC [Fam1A.1 aminoacylation ribozyme variant]”, the self-aminoacylation in data set [1] is 1.01; in data set [2], 0.978; in data set [3], 0.933; in data set [4], 0.872.
The like results for “AAGUUUGCAAAUAGUCGCAAG [Fam3.1 aminoacylation ribozyme variant]” were, in that order, 0.665, 0.752, 0.763 and 0.734.
Take “CCACUCUUCAACCAAUCGGUC [Fam1B.1 aminoacylation ribozyme variant]”: the self-aminoacylation in data set [1] was determined as 1.62; in data set [2], 1.2; in data set [3], 0.974; in data set [4] it was 1.19.
As to “CCACUCUUCAAGCAAUCAGUC [Fam1B.1 aminoacylation ribozyme variant]”, the self-aminoacylation in data set [1] turned out to be 0.739; in data set [2], 0.725; in data set [3] it was 0.76; in data set [4] it was 0.541.
“AAACACUUCAAGCAAUCGGUC [Fam1B.1 aminoacylation ribozyme variant]”: the self-aminoacylation in data set [1] was found to be 1.55; in data set [2] it was 1.41; in data set [3], 1.54; in data set [4] it was 1.5.
On the same counts, the results for “AAAUUUGCUAAUAGUCGCAAG [Fam3.1 aminoacylation ribozyme variant]” are 1.53, 1.54, 1.79 and 1.58.
As to “CCACACUUCAAGUUAUCGGUC [Fam1B.1 aminoacylation ribozyme variant]”, the self-aminoacylation amounted to 1.04 in data set [1], 1.06 in data set [2], 1.09 in data set [3] and 1.01 in data set [4].
On the same counts, the results for “CUGCUUCAAACAAUCGGUUUG [Fam1A.1 aminoacylation ribozyme variant]” are 3.93, 2.1, 2.07 and 2.38.
On the same counts, the results for “AUUCACCUAGGUCAACGGGUC [Fam2.2 aminoacylation ribozyme variant]” are 0.807, 1.07, 0.899 and 0.915.
For “CUACUUCAAACAAUCGGUCAG [Fam1A.1 aminoacylation ribozyme variant]”, the self-aminoacylation stood at 0.906 in data set [1], 0.882 in data set [2], 0.838 in data set [3] and 0.797 in data set [4].
With “AAGUUUGGUAAUAGUCGCAAC [Fam3.1 aminoacylation ribozyme variant]”, the self-aminoacylation worked out at 1.16 in data set [1], 1.47 in data set [2], 1.48 in data set [3] and 1.19 in data set [4].
Turning to “AUUUCCCUGGUCAUCGAGUGG [Fam2.1 aminoacylation ribozyme variant]”, the self-aminoacylation was found to be 8.26 in data set [1], 3.99 in data set [2], 3.66 in data set [3] and 7.95 in data set [4].
On the same counts, the results for “CCACACUUCUAGCAAUCUGUC [Fam1B.1 aminoacylation ribozyme variant]” are 0.354, 0.502, 0.424 and 0.378.
On the same counts, the results for “UAACACUUCAAGCAAUCGGUC [Fam1B.1 aminoacylation ribozyme variant]” are 1.31, 1.43, 1.28 and 1.26.
As for “GAGUUUGCUAAUAGUCGUAAG [Fam3.1 aminoacylation ribozyme variant]”, the self-aminoacylation turned out to be 1.28 in data set [1], 1.17 in data set [2], 1.4 in data set [3] and 1.4 in data set [4].
For the sequence “CUACUUCAAACAAACGAUCUG [Fam1A.1 aminoacylation ribozyme variant]”, the self-aminoacylation is 0.569 in data set [1], 0.779 in data set [2], 0.693 in data set [3] and 0.728 in data set [4].
The like results for “CUGCUCCAAACAAUCGGUCUG [Fam1A.1 aminoacylation ribozyme variant]” were, in that order, 1.61, 1.15, 1.07 and 1.18.
“CCACACUUCAACCAAUCGGUU [Fam1B.1 aminoacylation ribozyme variant]”: the self-aminoacylation in data set [1] is 1.32; in data set [2], 1.64; in data set [3] it was 1.12; in data set [4], 1.2.
On the same counts, the results for “CUACUUCAAAGAAGCGGUCUG [Fam1A.1 aminoacylation ribozyme variant]” are 0.82, 0.988, 1.09 and 1.01.
“CCCUACUUCAAGCAAUCGGUC [Fam1B.1 aminoacylation ribozyme variant]”: the self-aminoacylation in data set [1] was 1.76; in data set [2], 1.46; in data set [3], 1.49; in data set [4], 1.45.
On the same counts, the results for “CAGUUUGGUAAUAGUCGCAAG [Fam3.1 aminoacylation ribozyme variant]” are 1.73, 1.67, 1.85 and 1.73.
On the same counts, the results for “UAGUUUGCUUAUAGUCGCAAG [Fam3.1 aminoacylation ribozyme variant]” are 1.59, 1.54, 1.53 and 1.84.
“CUCCUUCAAACAAUCGGUCAG [Fam1A.1 aminoacylation ribozyme variant]”: the self-aminoacylation in data set [1] was 1.07; in data set [2] it was 1.02; in data set [3], 0.791; in data set [4] it was 0.93.
